# Source: PubChem BioAssay (EPA / NIEHS)
# Values joined by “and” are separate entries in the source; they are usually repeats but may differ in a detail not shown here. Equal entries are not always repeated. Inconclusive results, whose numbers are uncertain, are shown with a selection of clear calls. Potencies beside an inconclusive call are fits to weak or partial responses and may not hold up. Active and inactive are the calls of the source. How the source made its calls: active means hit-call score of the fitted dose curve at least 0.9, where 1 is the maximum; inconclusive means response in the unintended direction; inactive means score below 0.9.
# Experiment: TOX21_p53_BLA_p5_viability: Viability Assessment in the Tox21 HCT-116 p53 Agonism Beta-lactamase Assay, Phase 5 (AID 2283600)
# Method in brief: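 After the 460/530 nm beta-lactamase measurement, the wells received an ATP-detection luciferase reagent; signal was read 30 min later at RT. Compound treatment lasted 16 h on cells pre-incubated 5 h post-seeding.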
SMILES,AC50,outcome
C=CCOC(=O)CC(C)C,inconclusive: 46.1 µM,
CC(C)c1ccc(C(=O)N=C(N)N)cc1S(C)(=O)=O,,inactive
Cc1ccnc(N)c1,inconclusive: 46.1 µM,
O=C1O[C@H]([C@H](O)CO)C(O)=C1O,inconclusive: 84.2 µM and inconclusive: 46.1 µM,
Nc1ccc(NCCO)c([N+](=O)[O-])c1,inconclusive: 46.1 µM,
O=C(O)C[C@H](O)C[C@H](O)/C=C/c1c(C2CC2)nc2ccccc2c1-c1ccc(F)cc1,,inactive
Fc1ccccc1[C@@H](F)COC1CCC(Nc2ncnc3[nH]ncc23)CC1 (stereo partly specified),,inactive
N=c1ccn2c(n1)O[C@H]1[C@H](O)[C@@H](CO)O[C@H]12,,inactive
CCOC(=O)CC(C(C)=O)C(C)=O,inconclusive: 46.1 µM,
C[N+](C)(C)CCCCCC[N+](C)(C)C,inconclusive: 23 µM,
O=c1[nH]nnc2ccccc12,inconclusive: 46.1 µM,
CCCCC(CC)COC(=O)c1ccc(N(C)C)cc1 (stereo unspecified),,inactive
CSc1nc(NC2CC2)nc(NC(C)(C)C)n1,inconclusive: 46.1 µM,
CC(C)c1nnc2ccc(-c3ocnc3-c3cc(F)ccc3F)cn12,inconclusive: 46.1 µM,
Cc1ccc2ncccc2c1,inconclusive: 46.1 µM,
CC(C)(CO)COC(=O)C(C)(C)CO,inconclusive: 46.1 µM,

# 3 compounds from above, sorted by molecular weight, largest number first:
SMILES,AC50,outcome
O=C(O)C[C@H](O)C[C@H](O)/C=C/c1c(C2CC2)nc2ccccc2c1-c1ccc(F)cc1,,inactive
CC(C)(CO)COC(=O)C(C)(C)CO,inconclusive: 46.1 µM,
Nc1ccc(NCCO)c([N+](=O)[O-])c1,inconclusive: 46.1 µM,

# Further results.

SMILES,AC50,outcome
C=CCOC(=O)C(=C)C,inconclusive: 1.02 nM and inconclusive: 14.6 µM,
Cc1ccc(Nc2ccc(O)c3c2C(=O)c2ccccc2C3=O)cc1,inconclusive: 46.2 µM,
CC(CC(C)C)=NO,inconclusive: 46.1 µM,
Cc1cc(C)nc(NS(=O)(=O)c2ccc(N)cc2)n1,inconclusive: 23 µM,
CCCCCCCCCCOC(=O)c1ccccc1C(=O)OCCCCCCCC,inconclusive: 2.76 µM,
OC[C@H]1O[C@@H](Oc2ccc(O)cc2)[C@H](O)[C@@H](O)[C@@H]1O,inconclusive: 46.1 µM,
CCCOCCO,inconclusive: 0.0932 µM,
Cc1cccc(C)c1O,inconclusive: 46.7 µM,
Cc1ccc(C=O)s1,,inactive
c1cc(-c2ccncc2)ccn1,inconclusive: 0.138 µM,
CC/C=C\CCOC(=O)c1ccccc1,inconclusive: 46.1 µM,
CC(=O)c1ccccc1O,inconclusive: 46.1 µM,
CCc1nn(C2CCCCC2)c2cc(C3(C#N)CCC(C(=O)O)CC3)ccc12 (stereo unspecified),,inactive
